The text below walks through data of publication PMC5865211, “The orphan GPR50 receptor promotes constitutive TGFβ receptor signaling and protects against cancer development” (Nature Communications, 2018).

Protein sequences, listed by entry. Tags and fused reporters are not part of them. Lines headed by an entry give the natural chain unless they say otherwise; changes in a name come on top. Chains listed by the source or under a name are the forms on record and can include a tag or linker.
GPR50Δ4-TAP (Q13585, form named): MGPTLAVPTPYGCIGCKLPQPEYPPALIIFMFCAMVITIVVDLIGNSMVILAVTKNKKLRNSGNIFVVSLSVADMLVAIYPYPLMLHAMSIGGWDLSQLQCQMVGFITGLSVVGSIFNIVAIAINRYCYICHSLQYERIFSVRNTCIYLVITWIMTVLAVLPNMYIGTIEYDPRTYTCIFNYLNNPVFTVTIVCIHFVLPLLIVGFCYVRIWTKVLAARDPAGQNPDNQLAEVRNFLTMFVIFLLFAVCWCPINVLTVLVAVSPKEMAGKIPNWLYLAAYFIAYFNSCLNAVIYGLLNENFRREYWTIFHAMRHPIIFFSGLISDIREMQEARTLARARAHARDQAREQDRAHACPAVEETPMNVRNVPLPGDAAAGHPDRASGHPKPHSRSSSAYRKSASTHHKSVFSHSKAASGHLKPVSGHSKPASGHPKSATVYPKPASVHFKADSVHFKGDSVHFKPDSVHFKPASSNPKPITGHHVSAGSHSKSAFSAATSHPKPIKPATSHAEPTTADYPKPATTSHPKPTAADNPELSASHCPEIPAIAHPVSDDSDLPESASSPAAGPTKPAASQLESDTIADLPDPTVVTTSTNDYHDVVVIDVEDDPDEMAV

No constants are given. Whether binding was seen depends on the method and setting. In cells and extracts the contact can be indirect. These calls come from enrichment with a bait or labelling near it, and not all partners need be listed.

The assay has as its target GPR50Δ4-TAP (human) (UniProt Q13585). Description: affinity purification with mass spectrometry; tandem affinity purification of GPR50Δ4-TAP from stably expressing HEK293T cells, naive HEK293T as control; on-bead trypsin digestion on calmodulin beads, nLC MS/MS.

B1: type I TGFβ receptor (TβRI), endogenous human (receptor, UniProt P36897 34-503)
chain: LQCFCHLCTKDNFTCVTDGLCFVSVTETTDKVIHNSMCIAEIDLIPRDRPFVCAPSSKTGSVTTTYCCNQDHCNKIELPTTVKSSPGLGPVELAAVIAGPVCFVCISLMLMVYICHNRTVIHHRVPNEEDPSLDRPFISEGTTLKDLIYDMTTSGSGSGLPLLVQRTIARTIVLQESIGKGRFGEVWRGKWRGEEVAVKIFSSREERSWFREAEIYQTVMLRHENILGFIAADNKDNGTWTQLWLVSDYHEHGSLFDYLNRYTVTVEGMIKLALSTASGLAHLHMEIVGTQGKPAIAHRDLKSKNILVKKNGTCCIADLGLAVRHDSATDTIDIAPNHRVGTKRYMAPEVLDDSINMKHFESFKRADIYAMGLVFWEIARRCSIGGIHEDYQLPYYDLVPSDPSVEEMRKVVCEQKLRPNIPNRWQSCEALRVMAKIMRECWYANGAARLTALRIKKTLSQLSQQEGIKM
Take B1: the binding result is “binds”.
